These are yes or no findings as the source states them, for the method shown. Some binding calls cover weakened binding; strength is not graded here.
Key:
[1] = molecular target: FLAG-AML1-ETO (UniProt Q01196); test: chromatin immunoprecipitation with anti-FLAG in KCL22 cells, PCR of c-kit promoter
[2] = molecular target: AML1-ETO fusion protein (UniProt Q01196); test: EMSA with nuclear extracts of transfected Cos7 cells; supershift (legend of FIG. 2)
[3] = molecular target: AML1-ETO fusion protein (UniProt Q01196); test: EMSA with nuclear extracts of transfected Cos7 cells, myb consensus oligonucleotide; supershift
[4] = molecular target: AML1-ETO fusion protein (UniProt Q01196); test: summary sentence opening Example 4 (rests on EMSA and ChIP of Examples 2 and 3)

Chains of the proteins cited; added tags and fusions are not shown. Lines headed by an entry give the natural chain unless they say otherwise; changes in a name come on top.
UniProt Q01196: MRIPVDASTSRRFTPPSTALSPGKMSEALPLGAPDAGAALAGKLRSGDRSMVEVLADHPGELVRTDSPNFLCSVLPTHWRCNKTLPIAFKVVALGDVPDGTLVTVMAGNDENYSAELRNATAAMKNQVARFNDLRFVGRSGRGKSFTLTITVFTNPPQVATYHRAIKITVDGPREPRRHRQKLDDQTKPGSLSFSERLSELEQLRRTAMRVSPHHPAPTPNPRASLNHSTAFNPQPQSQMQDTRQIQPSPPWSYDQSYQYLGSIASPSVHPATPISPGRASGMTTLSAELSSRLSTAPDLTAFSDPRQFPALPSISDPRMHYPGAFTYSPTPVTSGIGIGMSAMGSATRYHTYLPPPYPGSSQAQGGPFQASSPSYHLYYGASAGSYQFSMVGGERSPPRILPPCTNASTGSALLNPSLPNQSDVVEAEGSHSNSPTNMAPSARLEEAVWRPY
UniProt P06876: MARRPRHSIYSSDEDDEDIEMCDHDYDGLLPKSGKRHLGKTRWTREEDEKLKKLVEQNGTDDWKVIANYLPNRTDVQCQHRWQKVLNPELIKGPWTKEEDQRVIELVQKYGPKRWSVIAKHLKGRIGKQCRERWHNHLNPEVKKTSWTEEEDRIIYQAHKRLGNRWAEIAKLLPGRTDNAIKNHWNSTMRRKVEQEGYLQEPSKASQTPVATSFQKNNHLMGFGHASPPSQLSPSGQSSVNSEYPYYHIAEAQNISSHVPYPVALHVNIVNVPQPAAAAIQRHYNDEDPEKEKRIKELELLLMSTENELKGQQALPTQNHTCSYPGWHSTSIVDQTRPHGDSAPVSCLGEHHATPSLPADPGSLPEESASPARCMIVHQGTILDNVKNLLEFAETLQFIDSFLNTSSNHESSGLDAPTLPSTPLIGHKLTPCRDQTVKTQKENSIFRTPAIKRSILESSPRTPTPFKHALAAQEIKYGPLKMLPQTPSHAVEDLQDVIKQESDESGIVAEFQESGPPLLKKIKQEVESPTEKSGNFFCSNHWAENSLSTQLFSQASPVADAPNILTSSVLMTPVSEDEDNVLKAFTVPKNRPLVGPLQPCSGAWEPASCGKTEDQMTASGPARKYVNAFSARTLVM

binding [1]: binds
binding [2]: binds
binding [3]: binds
binding [4]: binds
Substance: GFP-M&M (from UniProt P06876 65-198; Q99607 87-206) (designed binder)

Reference: patent publication US20060166876A1
